Some of the results follow. Single values are uncertain, as repeats are few or missing.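 Cells were imaged in 1,536-well plates, and nuclei stained with an antibody against cleaved PARP were counted against all DNA-stained nuclei to give the apoptosis fraction. Screening doses were chosen to leave most cells alive, and resting and induced cleaved-PARP levels differ strongly between cell lines.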
test system: MZ2-MEL; assay: cleaved PARP positive nuclei fraction relative to DMSO control; melanoma cells; higher = more apoptosis; conditions: library dose: low library concentration; 72 h

Row | Structure (SMILES) | cleaved PARP positive nuclei fraction [%]
1 | CC(=O)c1c(C)c2cnc(Nc3ccc(N4CCNCC4)cn3)nc2n(C2CCCC2)c1=O [palbociclib] + OCc1c[nH]c2ccccc12 [Indole-3-carbinol] (first compound 0.04 µM, partner dose 0.8 µM) | 62.8
2 | Clc1ccc(Nc2nnc(Cc3ccncc3)c3ccccc23)cc1 [vatalanib] + COCC[n+]1c2c(n(Cc3cnccn3)c1C)C(=O)c1ccccc1C2=O [YM155] (first compound 2 µM, partner dose 0.0004 µM) | 62.3
3 | CC1(C)NC(=O)N(c2ccc([N+](=O)[O-])c(C(F)(F)F)c2)C1=O [nilutamide] + O=C(Nc1cccc(Cl)c1)Nc1ncc(CCNc2ncnc3ccsc23)s1 [SNS314] (first compound 1 µM, partner dose 0.0008 µM) | 158
4 | Nc1cccc2c1CN(C1CCC(=O)NC1=O)C2=O (stereo unspecified) [lenalidomide] + C[C@]1(c2nc3c(C(N)=O)cccc3[nH]2)CCCN1 [Veliparib] (first compound 1 µM, partner dose 1.4 µM) | 76.7
5 | OCc1c[nH]c2ccccc12 [Indole-3-carbinol] + COc1ccc(Cl)c(Nc2nc3ccccc3nc2NS(=O)(=O)c2cccc(NC(=O)C(C)(C)N)c2)c1 [XL147] (first compound 0.8 µM, partner dose 0.8 µM) | 269
6 | CC(=O)c1c(C)c2cnc(Nc3ccc(N4CCNCC4)cn3)nc2n(C2CCCC2)c1=O [palbociclib] + Clc1ccc(Nc2nnc(Cc3ccncc3)c3ccccc23)cc1 [vatalanib] (first compound 0.04 µM, partner dose 2 µM) | 29.2

— the supplement of paper PMC4604168 (melanoma cell lines)
